Data on one substance can be found in paper PMC4813707.

Amino acid sequences for entries named in this document (tags omitted).
UniProt Q9R190: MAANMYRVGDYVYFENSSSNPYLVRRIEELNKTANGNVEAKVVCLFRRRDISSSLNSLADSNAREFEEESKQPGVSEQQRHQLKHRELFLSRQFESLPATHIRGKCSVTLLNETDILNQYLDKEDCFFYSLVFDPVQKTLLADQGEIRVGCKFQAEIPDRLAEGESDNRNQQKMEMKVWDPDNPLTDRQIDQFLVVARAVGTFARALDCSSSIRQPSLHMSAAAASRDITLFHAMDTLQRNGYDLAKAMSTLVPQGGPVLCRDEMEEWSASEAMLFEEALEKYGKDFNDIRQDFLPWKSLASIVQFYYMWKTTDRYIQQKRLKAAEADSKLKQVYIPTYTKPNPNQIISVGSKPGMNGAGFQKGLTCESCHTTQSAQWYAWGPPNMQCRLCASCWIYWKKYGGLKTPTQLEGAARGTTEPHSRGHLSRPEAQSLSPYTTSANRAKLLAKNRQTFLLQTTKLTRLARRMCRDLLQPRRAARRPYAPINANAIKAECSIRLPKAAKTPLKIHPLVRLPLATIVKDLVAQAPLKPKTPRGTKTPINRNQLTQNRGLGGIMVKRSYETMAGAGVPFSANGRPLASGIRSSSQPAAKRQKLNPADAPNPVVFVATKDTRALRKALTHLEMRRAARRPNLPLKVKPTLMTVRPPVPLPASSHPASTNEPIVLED
UniProt P70288: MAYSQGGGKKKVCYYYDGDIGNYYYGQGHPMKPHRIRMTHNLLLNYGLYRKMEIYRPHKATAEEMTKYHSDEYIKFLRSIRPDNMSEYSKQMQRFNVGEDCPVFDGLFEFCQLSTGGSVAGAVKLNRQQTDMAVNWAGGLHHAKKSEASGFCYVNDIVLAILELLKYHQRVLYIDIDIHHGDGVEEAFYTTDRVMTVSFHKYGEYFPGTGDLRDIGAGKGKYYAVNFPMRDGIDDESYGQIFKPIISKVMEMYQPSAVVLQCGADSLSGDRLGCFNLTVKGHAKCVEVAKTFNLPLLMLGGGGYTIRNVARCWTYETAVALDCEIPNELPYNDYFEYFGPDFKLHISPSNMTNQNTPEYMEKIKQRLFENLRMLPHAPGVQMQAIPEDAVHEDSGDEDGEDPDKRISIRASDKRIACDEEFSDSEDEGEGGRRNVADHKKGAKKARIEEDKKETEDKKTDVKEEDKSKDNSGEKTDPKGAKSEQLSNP

No constants are given. Whether binding was seen depends on the method and setting. Binding seen in cells or lysates may run through a third protein. Some entries that bind do so weakly or less than the wild type.

This assay concerns the target Mta2-FTAP (mouse) (UniProt Q9R190). The assay can be described thus: co-IP; Mta2-FTAP immunoprecipitated with anti-FLAG antibody from whole cell lysates (first step of the serial IP); Western blotting. Background: Immunoblotting shows a protein as a band on a membrane.

As for “Hdac2 (from UniProt P70288 1-488) (enzyme)”, the binding result is listed as “binds”.
